From PubChem BioAssay AID1259415 (National Center for Advancing Translational Sciences (NCATS), 2018)
In all, about 410,000 compounds went through this assay and about 18,000 (4.4%) were called active. The shares of active, inactive and inconclusive entries below differ from those in the screen. Rule as the data show it: active = activity change below about -60%; inconclusive = no clear call, values can overlap the other calls; inactive = above about -39%.

Assay: qHTS Assay for inhibitors of the human cytomegalovirus (HCMV)
Settings: HFF cells, HCMV-luciferase reporter, 72 h; at 57.5 µM; stronger effect = lower value
How it was run: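 Screen run at 2 compound doses on HFFs infected with reporter HCMV, MOI 1 PFU/cell. Luciferase activity from cell lysates at 72 h post infection gave inhibition relative to buffer-only and Salinomycin wells.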
% is scaled to controls: 0 for no effect and ±100 for the full control effect.

Row | SMILES | activity change, negative = inhibition
1 | Nc1ncnc2c1nc(SCCO)n2Cc1ccccc1 | active: -74%
2 | COC(=O)CSc1nc2ccc(NC(=O)c3ccccc3C(=O)N3CCOCC3)cc2s1 | active: -63.7%
3 | CC(C)N1CCN(Cc2ccc(C#CC(C)(C)O)cc2)CC1CCO (centres undefined) | inconclusive: -50.4%
4 | C/C(=N/NC(=O)CN1CCN(Cc2ccccc2Cl)CC1)c1ccco1 | inconclusive: -51.4%
5 | O=c1c2c(n3nnnc3n1Cc1ccccc1)-c1ccccc1CC21CCCC1 | inconclusive: -40.5%
6 | CCN(CC(=O)Nc1c(F)cccc1F)C(=O)c1ccc(OC)c(S(=O)(=O)NC2CCCC2)c1 | active: -71.6%
7 | CC(C)Oc1ccccc1C1CC(=O)Nc2cc3c(cc21)OCO3 (centres undefined) | active: -101%
8 | COc1ccccc1OCCCn1cc(C(=O)C2CC2)c2ccccc21 | inconclusive: -42.1%
9 | CCCCCCC(O)(c1ccc(OC)cc1)C(CN1CCOCC1)c1ccccc1 (centres undefined) | active: -69.3%
10 | O=C(c1ccccc1)c1nccc2ccccc12 | inconclusive: -56%
11 | CC1=C(C(=O)N2CCOCC2)C(c2c(C)cc(C)cc2C)NC(=S)N1 (centres undefined) | inconclusive: -43.1%
12 | COc1ccc(F)cc1S(=O)(=O)N1CCC(C(N)=O)CC1 | inactive: -14.6%
13 | CC(Sc1nnc(-c2ccncc2)n1-c1ccc(F)cc1)C(=O)NC1CC1 (centres undefined) | inconclusive: -52.2%
14 | CC12CCCCC1NS(=O)(=O)OC2 (centres undefined) | inconclusive: -40.9%
15 | COc1cc2c(cc1OC)C(C1C(=O)CC(C)CC1=O)N(C(=O)CCl)CC2 (centres undefined) | inconclusive: -41.8%
16 | O=C(CSc1nc2ccsc2c(=O)n1Cc1ccccc1F)NCc1ccccc1Cl | active: -90.9%
17 | COC(=O)c1ccc(NC(=S)NC2CC3CCC2C3)cc1 (centres undefined) | inconclusive: -53.1%
18 | CC(C)CCN1CCN(CC#Cc2ccccc2)CC1CCO (centres undefined) | inconclusive: -42.1%
19 | COc1ccccc1C(=O)C1CCCN(C(=O)CSc2ccccn2)C1 (centres undefined) | inactive: -18.7%
20 | COC(=O)C1C(=O)C=C(Nc2ccc(F)cc2F)CC1c1ccc(OC)cc1 (centres undefined) | inconclusive: -54.4%
21 | Cc1ccc(C)c(Cn2c(=O)n(-c3ccc(F)cc3)c(=O)c3sc4ccccc4c32)c1 | inactive: 5.14%
22 | Cc1ccccc1Nc1c(-c2ccncc2)nc2ccc(Br)cn12 | inconclusive: -44.5%
23 | C=CCOc1c(Br)cc(/C=C2/NC(=S)N(C(C)=O)C2=O)cc1OC | inconclusive: -41.4%

Row | SMILES | activity change, negative = inhibition
24 | CCc1cc2c(=O)c(-n3cnc4ccccc43)coc2cc1O | inactive: -11.3%
25 | O=C(C1CC1)N1CCc2sccc2C1c1ccc(Cl)cc1 (centres undefined) | inactive: -24.3%
26 | CCOc1ccc(C2=Nn3c(nnc3-c3ccccc3OC)SC2)cc1 | active: -94.3%
27 | CN(C)CCN(C(=O)c1ccc(C(=O)c2ccccc2)cc1)c1nc2cc3c(cc2s1)OCO3 | inactive: 50%
28 | COc1ccc(OC)c(/C=N/NC(=O)CNC(=O)c2cccc3ccccc23)c1 | inconclusive: -48.5%
29 | CCOC(=O)C(C)(C)Oc1ccc(Cl)cc1 | inconclusive: -55.5%
30 | CCc1ccccc1NC(=O)Nc1cc(C(=O)NCc2ccccc2OC)ccc1N1CCCC1 | inactive: -2.8%
31 | Cc1ccc(-n2nc(C)c(C(=O)Nc3cccc(C(=O)NC4CC4)c3)n2)c(C)c1 | inconclusive: -55.7%
32 | CCOc1ccc(S(=O)(=O)NC(C)C)cc1C(N)=O | inconclusive: -41.8%
33 | C[C@@H]1CN([C@@H](C)CO)C(=O)c2c(c3ccccc3n2C)-c2ccccc2CO[C@H]1CN(C)C(=O)[C@H](C)c1ccccc1 | inconclusive: -58.5%
34 | Cc1c(C(=O)N2CCN(c3ccc(F)cc3)CC2)sc2ncnc(N3CCN(c4ccccn4)CC3)c12 | active: -80.7%
35 | CC(=O)c1cccc(NC(=O)CCCSc2nc(-c3ccco3)cc(C(F)(F)F)n2)c1 | inactive: -20.5%
36 | Cc1nn(Cc2ccc(F)cc2)c(C)c1NC(=O)C1c2ccccc2Oc2ccccc21 | inconclusive: -49.4%
37 | CCCCn1c(SCc2ncc(-c3ccccc3)o2)nc2cc(S(N)(=O)=O)ccc21 | inconclusive: -40.8%
38 | Cc1ccc(S(=O)(=O)Nc2ccc(NC(=O)CN3CCCCC3)cc2)cc1 | inconclusive: -48.4%
39 | S=C(NCc1ccccc1)N/N=C/c1cccs1 | inconclusive: -47.6%
40 | O=C(COC(=O)c1ccccc1)NCC1CCCO1 (centres undefined) | inactive: -24.5%
41 | CC/C(=N\NC(=O)CSCc1ccccc1Cl)c1ccc2c(c1)OCCO2 | inconclusive: -51.3%
42 | Cc1ccc(-c2nn3c(C)nnc3s2)cc1NCc1c(F)cccc1Cl | active: -76.1%
43 | CN1CCN(CCNC(=O)c2cn(Cc3ccccc3F)nn2)CC1 | inconclusive: -43.8%
44 | COc1ccc(OC(=O)C(C)N2C(=O)c3ccccc3C2=O)cc1 (centres undefined) | inactive: 7.29%
45 | COC(=O)c1c(C(=O)OC)c(-c2ccc(C(C)(C)C)cc2)n2c1CS(=O)C2 (centres undefined) | inconclusive: -58.3%
46 | Cc1ccn2cc(C(=O)Nc3ccc4c(c3)OCCO4)nc2c1 | inconclusive: -43.8%

A different layout for some results above.
Row	SMILES	activity change, negative = inhibition
25	O=C(C1CC1)N1CCc2sccc2C1c1ccc(Cl)cc1 (centres undefined)	inactive: -24.3%
33	C[C@@H]1CN([C@@H](C)CO)C(=O)c2c(c3ccccc3n2C)-c2ccccc2CO[C@H]1CN(C)C(=O)[C@H](C)c1ccccc1	inconclusive: -58.5%

Continued.

Row | SMILES | activity change, negative = inhibition
47 | COc1ccc(/C=C2\C(=O)NC(=O)N(CCC3=CCCCC3)C2=O)c(OC)c1 | inconclusive: -40.4%
48 | Cc1ccc(S(=O)(=O)N2CCc3ccccc3C2)cc1C | inconclusive: -54.3%
49 | CCOC(=O)N1CCC(N2Cc3cccc(C(=O)Nc4ccc(F)cc4)c3C2=O)CC1 | active: -102%
50 | COc1ccc(-c2noc(CCC(=O)NCCCN3CCC(Cc4ccccc4)CC3)n2)cc1 | inconclusive: -44.7%
51 | c1cc(-c2nnc3sc(C4CCCCC4)nn23)ccn1 | active: -79.9%
52 | COC(=O)c1c(NC(=O)c2ccccc2)sc(Cc2ccccc2)c1C | active: -62.4%
53 | Cc1nnc(SCC(=O)Nc2ccc(C(N)=O)cc2)n1-c1ccccc1 | inconclusive: -44.7%
54 | COc1ccc(CCNC(=O)c2ccc3c(c2)N(Cc2cccc(Cl)c2)C(=O)c2ccccc2S3=O)cc1OC (centres undefined) | inconclusive: -49.4%
55 | O=C(N/N=C/c1ccc(O)c2ncccc12)c1cccc(Br)c1 | active: -98.9%
56 | CCn1nc(C)cc1-c1nnc(Sc2ncc([N+](=O)[O-])s2)n1C | active: -96.3%
57 | CC(C)NC[C@H](O)COc1ccc(CC(N)=O)cc1 | inconclusive: -46%
58 | CN(C)c1ccc(CC(=O)N2CCCC(c3cc(C(=O)Nc4ccc5c(c4)OCO5)no3)C2)cc1 (centres undefined) | inconclusive: -53.4%
59 | COC(=O)[C@H](CC(C)C)N(Cc1ccccc1)S(=O)(=O)N(Cc1ccc(OC)cc1)[C@@H](CC(C)C)C(=O)OC | active: -66.2%
60 | CCCOc1ccc(C(=O)Nc2ccccc2[N+](=O)[O-])cc1 | inconclusive: -51.5%
61 | CCCCNc1ncnc2sc3c(c12)CCN(CCC)C3 | active: -62%
62 | O=C(Cn1c(=O)n(-c2ccccc2)c(=O)c2ccc(C(=O)NCc3ccc4c(c3)OCO4)cc21)Nc1ccc(F)c(Cl)c1 | inactive: 4.75%
63 | CCNC(=O)NC(=O)C(C)OC(=O)C1CCN(S(=O)(=O)c2ccc(C)c(C)c2)CC1 (centres undefined) | inconclusive: -43.3%
64 | O=C(NC1CCCC1)c1cccc(NC(=O)c2ccco2)c1 | active: -107%
65 | C=CCNC(=S)NNC(=O)COc1ccc(Br)cc1 | active: -60.7%
66 | CCCCN(Cc1ccco1)S(=O)(=O)c1ccc(-c2ccc(=O)[nH]n2)s1 | inconclusive: -40.4%
67 | O=C(NCCN1C(=O)S/C(=C\c2ccccc2F)C1=O)C1=COCCO1 | inconclusive: -41.5%
68 | COc1ccccc1N1CCN(Cc2ccc(O)c3ncccc23)CC1 | active: -91.1%
69 | CCn1c(=O)c2ccccc2n(CC(=O)NC2CCCCC2)c1=O | inactive: -24.8%

Row | SMILES | activity change, negative = inhibition
70 | O=C(NC(=S)Nc1ccc(NC(=O)c2ccco2)cc1)c1ccccc1 | inconclusive: -51%
71 | N#CC(c1ccc(Cl)nn1)c1ccccc1Cl (centres undefined) | active: -63.3%
72 | Cc1ccc(NC(=S)NCC2CCN(C(C)c3ccccc3)C2)cc1C (centres undefined) | active: -62.8%
73 | C=CCOc1ccccc1CN1CCC(CO)(CCOc2ccccc2)CC1 | inconclusive: -46.5%
74 | CCOc1ccccc1CNC(=O)c1ccc2c(c1)nc1n2CCC(C)C1 (centres undefined) | inactive: 33.3%
75 | Nc1ncc2c(n1)-c1ccccc1CC2 | inconclusive: -57.2%
76 | COc1cccc(NC(=O)CSc2cccc[n+]2[O-])c1 | inactive: 0%
77 | COc1ccccc1CNC(=O)COC(=O)/C=C/c1ccc2ccccc2n1 | active: -62.1%
78 | CCOC(=O)c1ccccc1NC(=O)Cn1c(=O)n(-c2ccc(CC)cc2)c(=O)c2c(C)c(C(=O)N(C)C)sc21 | inconclusive: -43.6%
79 | COc1cccc(/C=N/NC(=O)c2c(-c3ccccc3)noc2C)c1O | active: -83.5%
80 | CC1CCN(C(=O)CSc2nnc(Cc3cccn3C)n2CCc2ccccc2)CC1 | inconclusive: -59.6%
81 | Cc1ccc2nc(N=C(N)N)nc(C)c2c1 | active: -89%
82 | Cc1cc(Cl)ccc1C(=O)C1CCCN(C(=O)c2cccnc2C)C1 (centres undefined) | inconclusive: -45.1%
83 | O=C(NCCc1cnc[nH]1)c1cccs1 | inactive: -6.2%
84 | COc1ccc(F)cc1-c1cc(NC=O)c2ncc(-c3cccc(C(=O)N(C)C)c3)n2c1 | inactive: 39.7%
85 | CCOc1ccc(-c2cc(C(=O)N/N=C/c3ccc(O)cc3)c3ccccc3n2)cc1 | active: -83%
86 | COc1ccc2cc(CCNC(=O)CC(C)(C)C)c(=O)[nH]c2c1 | inconclusive: -45.2%
87 | CCN(CC)c1ccc(CNS(=O)(=O)c2cc3c(cc2C)NC(=O)CO3)cc1 | inactive: 0%
88 | COc1ccc(NC(=O)CSc2ncc3c(n2)-c2ccccc2N(C)S3(=O)=O)cc1Cl | inactive: 6.8%
89 | Cc1ccc(S(=O)(=O)N(C)c2c(C)ccc(S(=O)(=O)NC(C)(C)C)c2C)cc1 | inconclusive: -51.2%

Of the compounds above, these have fluorine.
Row | SMILES | activity change, negative = inhibition
6 | CCN(CC(=O)Nc1c(F)cccc1F)C(=O)c1ccc(OC)c(S(=O)(=O)NC2CCCC2)c1 | active: -71.6%
12 | COc1ccc(F)cc1S(=O)(=O)N1CCC(C(N)=O)CC1 | inactive: -14.6%
13 | CC(Sc1nnc(-c2ccncc2)n1-c1ccc(F)cc1)C(=O)NC1CC1 (centres undefined) | inconclusive: -52.2%
16 | O=C(CSc1nc2ccsc2c(=O)n1Cc1ccccc1F)NCc1ccccc1Cl | active: -90.9%
20 | COC(=O)C1C(=O)C=C(Nc2ccc(F)cc2F)CC1c1ccc(OC)cc1 (centres undefined) | inconclusive: -54.4%
21 | Cc1ccc(C)c(Cn2c(=O)n(-c3ccc(F)cc3)c(=O)c3sc4ccccc4c32)c1 | inactive: 5.14%
34 | Cc1c(C(=O)N2CCN(c3ccc(F)cc3)CC2)sc2ncnc(N3CCN(c4ccccn4)CC3)c12 | active: -80.7%
35 | CC(=O)c1cccc(NC(=O)CCCSc2nc(-c3ccco3)cc(C(F)(F)F)n2)c1 | inactive: -20.5%
36 | Cc1nn(Cc2ccc(F)cc2)c(C)c1NC(=O)C1c2ccccc2Oc2ccccc21 | inconclusive: -49.4%
42 | Cc1ccc(-c2nn3c(C)nnc3s2)cc1NCc1c(F)cccc1Cl | active: -76.1%
43 | CN1CCN(CCNC(=O)c2cn(Cc3ccccc3F)nn2)CC1 | inconclusive: -43.8%
49 | CCOC(=O)N1CCC(N2Cc3cccc(C(=O)Nc4ccc(F)cc4)c3C2=O)CC1 | active: -102%
62 | O=C(Cn1c(=O)n(-c2ccccc2)c(=O)c2ccc(C(=O)NCc3ccc4c(c3)OCO4)cc21)Nc1ccc(F)c(Cl)c1 | inactive: 4.75%
67 | O=C(NCCN1C(=O)S/C(=C\c2ccccc2F)C1=O)C1=COCCO1 | inconclusive: -41.5%
84 | COc1ccc(F)cc1-c1cc(NC=O)c2ncc(-c3cccc(C(=O)N(C)C)c3)n2c1 | inactive: 39.7%
